PubChem BioAssay AID256 (DTP/NCI, 2004)
The list shows only some results of the screen, not a fair sample: it is rich in T/C values a quarter to a half above the control, in often repeated tests (any T/C) and in doses without a T/C. Other doses and runs of a compound stand elsewhere. T/C: endpoint of the treated group in % of that of the vehicle group. Some entries give survivors of the animals treated and no T/C: the source files T/C as zero there, which appears to mark a toxic dose or a test without result, not a measured value. Some doses without a T/C left all or most animals alive at the check, yet need not have been tolerated: survival well below the control is almost never listed, so the zero probably covers shortened survival too. Counts of survivors are from the toxicity check (mostly the fifth day) where no day follows; animals may have died later. Schedule codes are those of the source, taken here to give the interval after Q, in days (D) or hours (H), and the number of doses after X. Where survival is the endpoint, this PubChem deposit counts one and a half times the control or more as active, and values a quarter to a half above the control carry no call in these data; other NCI protocols may use other cut-offs. Some entries hold several experiments; the values are given in rising order. Some T/C values carry the count of animals alive at the toxicity check (mostly the fifth day); without a count, all were alive then.

System: CD2F1 mice, L1210 leukemia ip, survival T/C
Assay: NCI In Vivo Anticancer Drug Screen. Data for tumor model L1210 Leukemia (intraperitoneal) in CD2F1 (CDF1) mice
Conditions: higher T/C = longer survival
Method in brief: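 In this screen, transplantable tumors were grown in mice given either the compound or its vehicle. Results were expressed as the treated measurement relative to the control measurement.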

[1] = T/C endpoint: mean survival time, dose: 400.0 mg/kg/injection, schedule: Q04DX003 (ip), vehicle: saline
[2] = T/C endpoint: mean survival time, dose: 300.0 mg/kg/injection, schedule: Q01DX001 (ip), vehicle: saline
[3] = T/C endpoint: mean survival time, dose: 400.0 mg/kg/injection, schedule: Q04DX002 (ip), vehicle: saline with Tween-80
[4] = T/C endpoint: mean survival time, dose: 200.0 mg/kg/injection, schedule: Q01DX009 (ip), vehicle: saline with Tween-80
[5] = T/C endpoint: mean survival time, dose: 400.0 mg/kg/injection, schedule: Q01DX009 (ip), vehicle: saline with Tween-80
[6] = T/C endpoint: mean survival time, dose: 200.0 mg/kg/injection, schedule: Q01DX001 (ip), vehicle: saline with Tween-80

For `CCC(C)OC(=O)CCl` (stereo not drawn), the survivor count (T/C endpoint: mean survival time, dose: 300.0 mg/kg/injection, schedule: Q01DX001 (ip), vehicle: other) was 2 of 6.

For `CO[C@@H](C=O)O[C@@H](C=O)CO`, the T/C (T/C endpoint: mean survival time, dose: 280.0 mg/kg/injection, schedule: Q01DX001 (ip), vehicle: saline) was 130 % of control and the T/C (T/C endpoint: mean survival time, dose: 560.0 mg/kg/injection, schedule: Q01DX001 (ip), vehicle: saline) was 143 % of control [6 of 7 alive].

For `CCCNCCN(CC)CC`, the survivor count [1] was 5 of 6.

In the case of `N.N.N.N.N.N#CN=C(N)N.[Co+3].[O-][Cl+3]([O-])([O-])[O-]`, the survivor count (T/C endpoint: mean survival time, dose: 200.0 mg/kg/injection, schedule: Q04DX002 (ip), vehicle: saline) is reported as 0 of 3.

`Nc1nc(N)nc(NC(=O)COc2cc(Cl)c(Cl)cc2Cl)n1` was tested, and the survivor count (T/C endpoint: mean survival time, dose: 200.0 mg/kg/injection, schedule: Q04DX003 (ip), vehicle: saline with Tween-80) was 6 of 6.

`C=C(NC(=O)C(=C)NC(=O)c1csc(C2=NC3c4csc(n4)C4NC(=O)c5csc(n5)C(C(C)(O)C(C)O)NC(=O)C5CSC(=N5)/C(=C/C)NC(=O)C(C(C)O)NC(=O)c5csc(n5)C3(CC2)NC(=O)C(C)NC(=O)C(=C)NC(=O)C(C)NC(=O)C(C(C)CC)NC2C=Cc3c(C(C)O)cc(nc3C2O)C(=O)OC4C)n1)C(N)=O` (stereo not drawn) was tested, and the T/C (T/C endpoint: mean survival time, dose: 178.0 mg/kg/injection, schedule: Q04DX003 (ip), vehicle: saline) was 134 % of control, the T/C (T/C endpoint: mean survival time, dose: 266.0 mg/kg/injection, schedule: Q04DX003 (ip), vehicle: saline) was 126 % of control and the T/C [1] was 134 % of control.

In the case of `CCOC(=O)c1ncsc1NC(=O)NC`, the survivor count [2] is reported as 1 of 6.

In the case of `COc1cc(CC(=O)NO)cc(OC)c1OC`, the survivor count [3] is reported as 3 of 3.

`CCCC(O)C(N)CC` (stereo not drawn) was tested, and the survivor count (T/C endpoint: mean survival time, dose: 400.0 mg/kg/injection, schedule: Q01DX001 (ip), vehicle: saline) was 1 of 3.

`CC1(Br)OC(=O)CC1Br` (stereo not drawn) was tested, and the survivor count [3] was 0 of 3.

`O=C(O)/C=C\C(=O)OCc1ccc(Cl)cc1Cl` was tested, and the survivor count [4] was 2 of 6 and the survivor count [5] was 0 of 6.

With `CC(C)(C)NC(=O)CCC(CC(=O)NC(C)(C)C)C1([N+](=O)[O-])CCCCC1` (stereo not drawn) the survivor count [5] was 6 of 6.

For `CN1CCN(CCCN2CC3CC=CCC3C2)CC1` (stereo not drawn), the survivor count [1] was 0 of 6.

For `O=C(O)C(/C=C/c1ccccc1)c1ccccc1` (stereo not drawn), the survivor count [4] was 3 of 6.

With `Cc1ccc(C(C)NC2=NCCO2)c(C)c1` (stereo not drawn) the survivor count (T/C endpoint: mean survival time, dose: 100.0 mg/kg/injection, schedule: Q04DX002 (ip), vehicle: saline with Tween-80) was 0 of 3.

`Cc1cccc(C)c1N=NN(C)C` was tested, and the T/C (T/C endpoint: mean survival time, dose: 50.0 mg/kg/injection, schedule: Q01DX009 (ip), vehicle: other) was 125 % of control [2 of 2 alive], the T/C (T/C endpoint: mean survival time, dose: 50.0 mg/kg/injection, schedule: Q01DX009 (ip), vehicle: saline with Tween-80) was 134 % of control and the survivor count (T/C endpoint: mean survival time, dose: 100.0 mg/kg/injection, schedule: Q01DX009 (ip), vehicle: other) was 0 of 2. The survivor count (T/C endpoint: mean survival time, dose: 100.0 mg/kg/injection, schedule: Q01DX009 (ip), vehicle: saline with Tween-80) was 2 of 6, the survivor count (T/C endpoint: mean survival time, dose: 200.0 mg/kg/injection, schedule: Q01DX009 (ip), vehicle: other) was 0 of 2 and the survivor count (T/C endpoint: mean survival time, dose: 400.0 mg/kg/injection, schedule: Q01DX009 (ip), vehicle: other) was 0 of 2.

`CC(=O)/C=C/Sc1n[nH]c(=O)[nH]c1=O` was tested, and the survivor count (T/C endpoint: mean survival time, dose: 200.0 mg/kg/injection, schedule: Q01DX005 (ip), vehicle: distilled water + Tween-80) was 0 of 6.

In the case of `Cc1ccc(S(=O)(=O)OCOS(=O)(=O)c2ccc(C)cc2)cc1`, the T/C (T/C endpoint: median survival time, dose: 400.0 mg/kg/injection, schedule: Q01DX009 (ip), vehicle: Klucel (hydroxypropylcellulose) (HPC)) is reported as 132 and 136 % of control.

For `O=c1/c(=C/c2ccccc2)c2cccc3cccc1c32`, the survivor count (T/C endpoint: mean survival time, dose: 100.0 mg/kg/injection, schedule: Q01DX001 (ip), vehicle: saline with Tween-80) was 2 of 3, the survivor count [6] was 0 of 3 and the survivor count (T/C endpoint: mean survival time, dose: 400.0 mg/kg/injection, schedule: Q01DX001 (ip), vehicle: saline with Tween-80) was 0 of 3.

For `BrCc1c2ccccc2c(CBr)c2c1ccc1ccccc12`, the survivor count (T/C endpoint: mean survival time, dose: 400.0 mg/kg/injection, schedule: Q04DX002 (ip), vehicle: Klucel (hydroxypropylcellulose) (HPC)) was 1 of 3.

`CC(C)CCNCCO` was tested, and the survivor count [2] was 2 of 6.

In the case of `COc1ccc(NC(C)=O)c(O)c1C`, the survivor count [6] is reported as 6 of 6.
